The list shows a part of the results.

In this test the target is T1, OsSMF1 (Oryza sativa, UniProt Q6ZLB0 1-436).
T1 sequence: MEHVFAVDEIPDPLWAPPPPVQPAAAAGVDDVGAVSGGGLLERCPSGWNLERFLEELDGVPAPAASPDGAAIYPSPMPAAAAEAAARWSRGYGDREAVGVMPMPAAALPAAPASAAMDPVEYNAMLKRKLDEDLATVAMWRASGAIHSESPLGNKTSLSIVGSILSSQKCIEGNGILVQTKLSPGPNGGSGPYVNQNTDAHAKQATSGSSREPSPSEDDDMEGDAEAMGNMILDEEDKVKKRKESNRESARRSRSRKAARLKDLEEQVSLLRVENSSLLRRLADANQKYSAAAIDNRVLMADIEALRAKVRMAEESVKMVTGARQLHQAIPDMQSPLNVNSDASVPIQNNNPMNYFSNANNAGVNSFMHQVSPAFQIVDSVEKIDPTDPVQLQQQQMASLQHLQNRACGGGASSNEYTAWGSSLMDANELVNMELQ
Description: protein-binding microarray (RPBM); PBS, 2% BSA, 51.3 ng/ul salmon testes DNA, 50 uM zinc acetate, 200 nM TF, 25 C, 1 h; high values mean tight binding. Conditions: protein: recombinant; tags: N-terminal polyhistidine and DsRed monomer fusion (pET32a); chain copies: 2; label: CyDye5-dUTP incorporated in the synthesized complementary strand; 3' TTTTT single-stranded linker to array surface; dsDNA, one strand shown. The essentials:
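Transcription factors, each fused N-terminally to a polyhistidine tag and DsRed, were expressed in E. coli BL21-CodonPlus and purified on Ni–NTA. A custom Agilent array was made double-stranded by primer extension with Cy5-dUTP and blocked with 2% BSA. It was incubated with 200 nM protein in PBS, 2% BSA, salmon testes DNA and 50 µM zinc acetate at 25 °C for 1 h, then washed. The binding signal is per-feature fluorescence intensity (arbitrary units) read on an Axon 4000B scanner.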
For the sequence “GTTGTTTGTGCTCCGTGGGTGCAGAGGAAGCAGGGCGAGCCGGAGTCACCTAGTGCAG”, the binding signal is 4650 fluorescence intensity (a.u.).

For “TTGTTGAACTATAGGGTAGATGTGATATGTAAGAATTGCCCGGAGTCACCTAGTGCAG”, the binding signal is 3280 fluorescence intensity (a.u.).

On to “ATTCACATGTGAGGATCTTATGGCTCCACATGTCAGCTTGCGGAGTCACCTAGTGCAG”, for which the binding signal is 5140 fluorescence intensity (a.u.).

As for “GATCTGACCTCCTCAGCCTCCTTCCCCAACTGTTCCACGCCGGAGTCACCTAGTGCAG”, the binding signal was 44800 fluorescence intensity (a.u.).

With “GTATTGTGTGATGTCCACTGGAGTATAGCTGGGTGGGGTACGGAGTCACCTAGTGCAG”, the binding signal is 3750 fluorescence intensity (a.u.).

Consider “TGGTTTGCCCTGATTGGTCGCGTGACGCGTCCTCATATGCCGGAGTCACCTAGTGCAG”, for which the binding signal is 12100 fluorescence intensity (a.u.).

Turning to “TTGATATGCATACAGCCTTGGATGCAACGTCACCTGCAATCGGAGTCACCTAGTGCAG”, the binding signal is 6960 fluorescence intensity (a.u.).

With “AGTACAATCGCGGATCAGGCGTAGAACGTGGCATGTTTCCCGGAGTCACCTAGTGCAG”, the binding signal was 4270 fluorescence intensity (a.u.).

With “TCGCTGGCGGAGCTCCGGGAGGCGACGGGCGGGTTCGCGGCGGAGTCACCTAGTGCAG”, the binding signal was 31000 fluorescence intensity (a.u.).

On to “GTTGAGGCCGATGAGGTGACGTGCAGAAGCTGTGGCCGTGCGGAGTCACCTAGTGCAG”, for which the binding signal is 4260 fluorescence intensity (a.u.).

Regarding “ATAACCCGCACCACCTCATCCGCCGCATCGATCCTCCCTCCGGAGTCACCTAGTGCAG”, the binding signal is 3620 fluorescence intensity (a.u.).

With “TTAACTATGGTGTATATTCTTCAACATGTCCATCAACTTACGGAGTCACCTAGTGCAG”, the binding signal is 3300 fluorescence intensity (a.u.).

“GGGTTGCTGTATTTTCAGTTAGGCATATGGTGCTTGACATCGGAGTCACCTAGTGCAG”: the binding signal was 3520 fluorescence intensity (a.u.).

Consider “TGCGGAAGCCGAGTACAGAGGTGTGGCGAACGCGGTGGCGCGGAGTCACCTAGTGCAG”, for which the binding signal was 3220 fluorescence intensity (a.u.).

“AGCACGCATTAATGACGTAGTGGTATGCTCATCCATCAAACGGAGTCACCTAGTGCAG”: the binding signal is 3240 fluorescence intensity (a.u.).

For “TGGACACCGCGCCACGTGTCCAGCCACCCGTGACGTGTCGCGGAGTCACCTAGTGCAG”, the binding signal was 22900 fluorescence intensity (a.u.).

Take “CTGTTGTCGATATGGCGGTCTGAAGTTCTGACTCATAGTCCGGAGTCACCTAGTGCAG”: the binding signal was 6990 fluorescence intensity (a.u.).

Take “GCCTCTCGGATTAGCGCGGCTATAATACCGCGCGCGATTGCGGAGTCACCTAGTGCAG”: the binding signal was 3650 fluorescence intensity (a.u.).

As for “TACTTTCGTTTGCAAATATGCGGAATGATGGGGCTGTTTCCGGAGTCACCTAGTGCAG”, the binding signal was 3700 fluorescence intensity (a.u.).

Take “ATTTAGAGCATGACGCATTAACCCGAGTAGTCGATCCTGACGGAGTCACCTAGTGCAG”: the binding signal is 4090 fluorescence intensity (a.u.).

For the sequence “TATAAAATTTCGCAATAACGACGAAAGTATTAAACGGACACGGAGTCACCTAGTGCAG”, the binding signal was 56200 fluorescence intensity (a.u.).

For “GAGAAATGACGACACATCCTCTCGAGTGATCAGGATCCGTCGGAGTCACCTAGTGCAG”, the binding signal was 3590 fluorescence intensity (a.u.).

On to “TTGGGTGCGCGTCGATTGATTCATTTGATTGGTAGGTATTCGGAGTCACCTAGTGCAG”, for which the binding signal was 3470 fluorescence intensity (a.u.).

With “CGTCGAGAAGGCGACCCAAGTCGCCAAACGCGAAACCGGTCGGAGTCACCTAGTGCAG”, the binding signal was 38500 fluorescence intensity (a.u.).

As to “TTATATCTTGTATTTCCAAATCGTTTGCACCATGAAGATCCGGAGTCACCTAGTGCAG”, the binding signal is 18200 fluorescence intensity (a.u.).

Consider “AGTTCTTGGGGATGAGTGAGGAAGTGTGTCACATCCTGCTCGGAGTCACCTAGTGCAG”, for which the binding signal was 4140 fluorescence intensity (a.u.).

On to “CTTGCAGAGTTATTATTAATTTACACGCATGCAGCAGGCCCGGAGTCACCTAGTGCAG”, for which the binding signal was 3700 fluorescence intensity (a.u.).

“GCGGCGGTGGGCGTGGGCGAGGTGGAGCTTGCCGTGACGCCGGAGTCACCTAGTGCAG”: the binding signal was 3820 fluorescence intensity (a.u.).

Turning to “CTCCTCAATGACGCAATAGGCAACAACTCCTCTTGACGGCCGGAGTCACCTAGTGCAG”, the binding signal was 3540 fluorescence intensity (a.u.).

On to “GCCGTCCCGCCCACCGCCGCCACCTACGCGCTCTACCTCTCGGAGTCACCTAGTGCAG”, for which the binding signal was 4290 fluorescence intensity (a.u.).

Take “CAGCAGCCTCCAGCACTTGGTCACACACGTCACTCTACCACGGAGTCACCTAGTGCAG”: the binding signal is 8630 fluorescence intensity (a.u.).

As for “TTTGGTACTTGTGTCCTGCCTCCACATCAGCTTCAGAGACCGGAGTCACCTAGTGCAG”, the binding signal was 5140 fluorescence intensity (a.u.).

As to “CGAGCCAATGCCGTGTGTCTGAGTCTGACCCGTTGATTCTCGGAGTCACCTAGTGCAG”, the binding signal was 18400 fluorescence intensity (a.u.).

Take “GAACAACAATGCTTCTATTCATACGTGGATTTTCTATTCACGGAGTCACCTAGTGCAG”: the binding signal is 3900 fluorescence intensity (a.u.).

Regarding “TTGACTCCTGTTTTGTCCAACGTGGCAGCTGATTCAGCGTCGGAGTCACCTAGTGCAG”, the binding signal was 11100 fluorescence intensity (a.u.).

For “CTCCGTAGTACTAGTAGTAGACGACGTGTTCCCACCTGTCCGGAGTCACCTAGTGCAG”, the binding signal is 4880 fluorescence intensity (a.u.).

Consider “CACTTGGCCTTCCGCGTCCGTCCCTGACTCGGCGGCAGCGCGGAGTCACCTAGTGCAG”, for which the binding signal is 3510 fluorescence intensity (a.u.).

For the sequence “CACCAAGTCAACAACGTCACGTCAGCGAAACCATTCTCCACGGAGTCACCTAGTGCAG”, the binding signal was 9370 fluorescence intensity (a.u.).

Regarding “AAAGCTATCATCAATCCATCCAATATCCATCGTGCACTGACGGAGTCACCTAGTGCAG”, the binding signal was 3580 fluorescence intensity (a.u.).

Take “GTTTTAGTGGGTTGTTTCGTTGACGTGGTGCTATGACCCGCGGAGTCACCTAGTGCAG”: the binding signal was 9220 fluorescence intensity (a.u.).

Turning to “GGAGCCTAATTACTGACATGAGTCATAAGATCAAAGGTCTCGGAGTCACCTAGTGCAG”, the binding signal is 5840 fluorescence intensity (a.u.).

Consider “TAGTTCTATTGTTCTACAGAAATATGTAGTAGCTATACGTCGGAGTCACCTAGTGCAG”, for which the binding signal was 3330 fluorescence intensity (a.u.).

For the sequence “CCTTCACCGCCTCCGCCTCTTTGACCTCCTCCTCCGCCATCGGAGTCACCTAGTGCAG”, the binding signal is 24700 fluorescence intensity (a.u.).

In the case of “CCCATATACAATTGCCTTACCTGTCCCCACCTGTCACATGCGGAGTCACCTAGTGCAG”, the binding signal was 3170 fluorescence intensity (a.u.).

In the case of “GTGATATTCTGTCTTCCTGTGATATCAGCACTGTTTTATGCGGAGTCACCTAGTGCAG”, the binding signal is 3450 fluorescence intensity (a.u.).

In the case of “ATAAAGTGAGCGATGAGTCATATCATTATCTCCCGCCTGCCGGAGTCACCTAGTGCAG”, the binding signal was 16400 fluorescence intensity (a.u.).

In the case of “GAAGTGCCACGTAAGCACCACATCAATGCCACGTCAGATGCGGAGTCACCTAGTGCAG”, the binding signal was 38800 fluorescence intensity (a.u.).

As to “GGTTCTACAAATTTCTTAGTACAGTATAGACACGTCGGAGCGGAGTCACCTAGTGCAG”, the binding signal is 5910 fluorescence intensity (a.u.).

As to “TAGGTCTCGATTTTGTTTTCTTGGAGATCTGTGATGTCATCGGAGTCACCTAGTGCAG”, the binding signal is 5240 fluorescence intensity (a.u.).

On to “AGTAACCGACTCCTTTCCAACGTGTTCCCCACGAAGCCGGCGGAGTCACCTAGTGCAG”, for which the binding signal is 4560 fluorescence intensity (a.u.).

Consider “CTTTGCTTGGCCCGATCCTTACCTTTGCTGGCTTGTACTGCGGAGTCACCTAGTGCAG”, for which the binding signal was 3790 fluorescence intensity (a.u.).

“AACACGCAAAACTCTAATAATCCTGTCTATGTTTCTCTCTCGGAGTCACCTAGTGCAG”: the binding signal was 30000 fluorescence intensity (a.u.).

Consider “CCGCCCGCCCGCTCTCCTCCTCCTACACGTGGGACCCACCCGGAGTCACCTAGTGCAG”, for which the binding signal was 7850 fluorescence intensity (a.u.).

Turning to “AAAATCAGCACGTCACTACGGCTATATATATAGTACACGTCGGAGTCACCTAGTGCAG”, the binding signal is 6880 fluorescence intensity (a.u.).

For the origin of these results see publication PMC7819943, “Rice protein-binding microarrays: a tool to detect cis-acting elements near promoter regions in rice”.
